In article PMC1839166, “Type III Effector Activation via Nucleotide Binding, Phosphorylation, and Host Target Interaction” (PLoS Pathogens, 2007):
No constants are given. Whether binding was seen depends on the method and setting. Some results given as binding are weak or reduced against the parent protein; the word gives no strength.

By UniProt entry, the sequences of proteins in these tests, tags left out.
UniProt Q8P8X2: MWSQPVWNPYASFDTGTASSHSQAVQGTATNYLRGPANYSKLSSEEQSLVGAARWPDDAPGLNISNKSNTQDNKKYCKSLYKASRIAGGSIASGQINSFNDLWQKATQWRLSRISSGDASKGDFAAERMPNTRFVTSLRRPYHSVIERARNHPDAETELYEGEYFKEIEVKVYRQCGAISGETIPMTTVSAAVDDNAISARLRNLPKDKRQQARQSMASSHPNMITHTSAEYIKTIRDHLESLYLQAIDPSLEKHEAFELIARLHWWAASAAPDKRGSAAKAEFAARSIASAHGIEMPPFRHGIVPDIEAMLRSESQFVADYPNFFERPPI

Biological target: Xanthomonas campestris campestris avirulence protein C (AvrXccC), in yeast two-hybrid (Xanthomonas campestris pv. campestris) (UniProt Q8P8X2)
Experiment: two-hybrid; yeast two-hybrid, unpublished data

B1: B42AD-RIN4 (protein, UniProt Q8GYN5 1-211)
chain: MARSNVPKFGNWEAEENVPYTAYFDKARKTRAPGSKIMNPNDPEYNSDSQSQAPPHPPSSRTKPEQVDTVRRSREHMRSREESELKQFGDAGGSSNEAANKRQGRASQNNSYDNKSPLHKNSYDGTGKSRPKPTNLRADESPEKVTVVPKFGDWDENNPSSADGYTHIFNKVREERSSGANVSGSSRTPTHQSSRNPNNTSSCCCFGFGGK
In the case of B1, the binding is reported as “binds”.
